Assay [1] has as its target GAL4 BD::pUL50(1–358)-co (HCMV) (UniProt P16791). As to the kind of experiment: two-hybrid.
In assay [2] the target is truncated pUL53, Flag-tagged (wild-type) (HCMV) (UniProt P16794). As to the kind of experiment: co-IP; 293T cells transiently cotransfected, lysed three d p.t.; Flag-tagged hook constructs immunoprecipitated with mAb-Flag (Dynabeads); HA-tagged groove proteins lacking their TMD detected by Western blot; performed once.
Assay [3] addresses pUL50-HA, full-length (HCMV) (UniProt P16791). Briefly: co-IP; 293T cells transiently cotransfected, lysed three d p.t.; HA-tagged groove proteins (full-length or without TMD) immunoprecipitated with mAb-HA (Dynabeads); Flag-tagged hook proteins detected by Western blot; performed three times. For orientation: In western blotting, separated proteins are transferred to a membrane and probed.

The chains behind the UniProt entries cited, without tags or fusion partners. Where a name states a change or a piece, a line headed by the entry shows the natural chain unless it says otherwise. A line that says so, or that is headed by a name, gives the form on record, which may keep a tag or linker. Residues count along the entry.
UniProt P16791: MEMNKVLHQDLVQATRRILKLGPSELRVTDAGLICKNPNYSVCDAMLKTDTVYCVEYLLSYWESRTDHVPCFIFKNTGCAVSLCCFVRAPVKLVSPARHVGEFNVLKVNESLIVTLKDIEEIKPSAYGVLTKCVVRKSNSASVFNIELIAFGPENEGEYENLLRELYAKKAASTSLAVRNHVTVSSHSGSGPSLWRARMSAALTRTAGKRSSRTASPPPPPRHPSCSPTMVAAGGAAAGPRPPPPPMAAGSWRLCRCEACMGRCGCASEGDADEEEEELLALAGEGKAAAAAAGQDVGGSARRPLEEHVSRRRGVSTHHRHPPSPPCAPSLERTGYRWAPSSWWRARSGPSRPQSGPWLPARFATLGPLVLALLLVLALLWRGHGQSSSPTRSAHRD
pUL50(1–358)-HA (HCMV (strain AD169)): residues 1-358 of P16791
UniProt P16794: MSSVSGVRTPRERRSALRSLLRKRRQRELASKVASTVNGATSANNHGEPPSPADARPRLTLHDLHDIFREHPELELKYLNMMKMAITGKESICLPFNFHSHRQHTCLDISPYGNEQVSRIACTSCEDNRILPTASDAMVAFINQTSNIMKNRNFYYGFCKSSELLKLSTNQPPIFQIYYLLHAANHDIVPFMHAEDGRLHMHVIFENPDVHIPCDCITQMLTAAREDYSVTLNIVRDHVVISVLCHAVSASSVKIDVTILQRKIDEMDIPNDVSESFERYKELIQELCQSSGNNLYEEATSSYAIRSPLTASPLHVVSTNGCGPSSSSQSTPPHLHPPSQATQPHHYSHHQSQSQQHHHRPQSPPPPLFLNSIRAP
truncated pUL53, Flag-tagged (wild-type): residues 1-87 of P16794

Assay [4] has as its target pUL50(1–358)-HA (HCMV (strain AD169)) (UniProt P16791). The description is as above.
Assay [5] has as its target GAL4 BD::BFRF1(1–315) (EBV (strain B95-8)) (UniProt P03185). Briefly: two-hybrid.
Assay [6] concerns the target HA-BFRF1(1–315) (EBV (strain B95-8)) (UniProt P03185). As to the kind of experiment: co-IP; 293T cells transiently cotransfected, lysed three d p.t.; HA-tagged groove proteins (full-length or without TMD) immunoprecipitated with mAb-HA (Dynabeads); Flag-tagged hook proteins detected by Western blot; performed three times.
Assay [7] deals with T1, HA-BFRF1, full-length (EBV) (UniProt P03185).
T1 sequence: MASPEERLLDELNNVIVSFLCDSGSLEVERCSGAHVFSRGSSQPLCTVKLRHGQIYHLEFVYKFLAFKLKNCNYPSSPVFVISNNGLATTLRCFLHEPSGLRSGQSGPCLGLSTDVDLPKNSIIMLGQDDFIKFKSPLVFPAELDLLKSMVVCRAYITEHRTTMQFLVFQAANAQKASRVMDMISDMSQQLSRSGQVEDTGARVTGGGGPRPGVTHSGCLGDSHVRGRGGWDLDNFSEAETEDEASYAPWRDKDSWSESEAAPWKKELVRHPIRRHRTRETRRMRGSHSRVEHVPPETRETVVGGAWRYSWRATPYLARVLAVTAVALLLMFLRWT
The assay is described as above.

No constants are given. Whether binding was seen depends on the method and setting. For some of these results: Binding seen in cells or lysates may run through a third protein. Some results given as binding are weak or reduced against the parent protein; the word gives no strength. For some of these results: Where a sequence is shown, tags or fusion partners need not be part of it.

As for “GAL4 AD::pUL53-co (from UniProt P16794 1-376)”, in assay [1], the binding result is “binds”.

For the molecule “pUL50(1–358)-HA (from UniProt P16791 1-358) (domain or fragment)”, the binding entry in assay [2] was “binds”.

On to pUL53-Flag (from UniProt P16794 1-376), for which the binding result in assay [3] and in assay [4] was “binds” throughout.

B1: GAL4 AD::BFLF2 (protein, UniProt P0CK47 1-318)
chain: MAPVTPDAVNARQQRPADPALRRLMHPHHRNYTASKASAHSVKSVSRCGKSRSELGRMERVGSVARSICSRHTRHGVDRSHFSLRDFFRGISANFELGKDFLREMNTPIHVSEAVFLPLSLCTLSPGRCLRLSPFGHSLTLGSHCEICINRSQVHVPQEFSSTQLSFFNNVHKIIPNKTFYVSLLSSSPSAVKAGLSQPSLLYAYLVTGHFCGTICPIFSTNGKGRLIMHLLLQGTSLHIPETCLKLLCENIGPTYELAVDLVGDAFCIKVSPRDTVYEKAVNVDEDAIYEAIKDLECGDELRLQIINYTQLILENKQ
As to B1, in assay [5], the binding entry is given as “binds”.

B2: Flag-BFLF2 (protein, UniProt P0CK47 1-318)
chain: MAPVTPDAVNARQQRPADPALRRLMHPHHRNYTASKASAHSVKSVSRCGKSRSELGRMERVGSVARSICSRHTRHGVDRSHFSLRDFFRGISANFELGKDFLREMNTPIHVSEAVFLPLSLCTLSPGRCLRLSPFGHSLTLGSHCEICINRSQVHVPQEFSSTQLSFFNNVHKIIPNKTFYVSLLSSSPSAVKAGLSQPSLLYAYLVTGHFCGTICPIFSTNGKGRLIMHLLLQGTSLHIPETCLKLLCENIGPTYELAVDLVGDAFCIKVSPRDTVYEKAVNVDEDAIYEAIKDLECGDELRLQIINYTQLILENKQ
Consider B2, for which the binding entry in assay [6] and in assay [7] was “binds” each time.
